Results are given in words; binding and its absence hold for the method and conditions named. Some results given as binding are weak or reduced against the parent protein; the word gives no strength.
Columns and labels:
Arp5 (human) = Arp5 (human) (UniProt Q9H9F9); assay: co-purification; as the core complex but with either the Arp5 gene or the Ies6 gene omitted from the co-expression; purified by the tags of Ino80
Arp5-2xSII (human) = Arp5-2xSII (human) (UniProt Q9H9F9); assay: co-purification; Arp5-2xSII and Ies6 co-expressed in insect cells; StrepTactin HP, HiTrap Q, Superdex 200 (50 mM Tris pH 8.0, 300 mM NaCl, 1 mM TCEP, 10% glycerol)

- binding (Arp5 (human)): binds
- binding (Arp5-2xSII (human)): binds
Substance: Ies6 (from UniProt Q6PI98 1-192)
